Reference: US20130078268A1 (priority 2010, published 2013)

Experiment: general procedure: Fmoc solid-phase peptide synthesis; HCTU
Settings: whole synthesis, HPLC

[pGlu]PPGGSKVILF
purity (crude or final not stated): >95%

Where no end group is shown, it is not given here. [ ]: non-standard residue; d: D form. pGlu = O=C1CC[C@@H](C(=O)O)N1
